Experimental data as given in patent publication US20050272050A1 (published 2005).
Results are given in words; binding and its absence hold for the method and conditions named. Some binding calls cover weakened binding; strength is not graded here.

Chains of the proteins cited; added tags and fusions are not shown. Residues count along the entry.
UniProt P29965, residues 116-261: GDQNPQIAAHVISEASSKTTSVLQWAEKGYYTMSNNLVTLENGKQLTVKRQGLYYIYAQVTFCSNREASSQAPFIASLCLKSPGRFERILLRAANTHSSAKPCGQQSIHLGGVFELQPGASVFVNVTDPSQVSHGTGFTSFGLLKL

Experiments:
[1] = target: CD154 ligand (ALX-522-015) (UniProt P29965); experiment: competition ELISA on plate-held CD154, competitor of biotinylated WT CD40
[2] = target: CD154 ligand (ALX-522-015) (UniProt P29965); experiment: competition ELISA on plate-held CD154 (figure legend)
[3] = target: CD154 ligand (ALX-522-015) (UniProt P29965); experiment: ELISA, CD40 variant bound to the plate, biotinylated CD154 added, dose-response
[4] = target: CD154 ligand (ALX-522-015) (UniProt P29965); experiment: competition ELISA on plate-held CD154

Measured: binding

B1: CD40 NJ3 splice variant (receptor)
chain: EPPTACREKQYLINSQCCSLCQPGQKLVSDCTEFTETECLPCGESEFLDTWNRETHCHQHKYCDPNLGLRVQQKGTSETDTICTCEEGWHCTSEACESCVLHRSCSPGFGVKQIATGVSDTICEPCPVGFFSNVSSAFEKCHPWTSCETKDLVVQQAGTNKTDVVCGESWTMGPGESLGRSPGSAESPGGDPHHLRDPVCHPLGAGLYQKGGQEANQ
notes: For ELISA and FACS it was expressed non-fused with baculovirus, secreted and purified from the supernatant on a G28-5 column; also called CD40 NJ3 variant; CD40 variant NJ3
binds: [1] | [2]

B2: CD40 NJ1 splice variant (receptor)
chain: EPPTACREKQYLINSQCCSLCQPGQKLVSDCTEFTETECLPCGESEFLDTWNRETHCHQHKYCDPNLGLRVQQKGTSETDTICTCEEGWHCTSEACESCVLHRSCSPGFGVKQIATGVSDTICEPCPVGFFSNVSSAFEKCHPWTSCETKDLVVQQAGTNKTDVVCGESWTMGPGESLGRWELKGEMRHTGTLDGKKGRGGSLGVWYHSSATYLGSLGKSLPLS
notes: For ELISA and FACS it was expressed non-fused with baculovirus, secreted and purified from the supernatant on a G28-5 column; also called CD40 NJ1 variant; CD40 variant NJ1
binds: all assays above
